No constants are given. Whether binding was seen depends on the method and setting. In cells and extracts the contact can be indirect. Binding can be weak; no strength is given.
Legend:
[1] = molecular target: HSP60 (heat shock protein family 60), endogenous (human (endogenous in RKO, CX-1 or HCT116)) (UniProt P10809); test: co-IP; cell lysate (1 mg) on Protein A/G beads with anti-HSP60 (2 ug) or control IgG, 4 C overnight; blot with anti-HSP60 and anti-VEGFA; both proteins endogenous
[2] = molecular target: HSP60-Flag (from pcDNA-HSP60-Flag) (UniProt P10809); test: co-IP; HCT116 transfected with pcDNA-HSP60-Flag (pcDNA3.1 as negative control), 48 h; lysate (1 mg) on anti-Flag magnetic beads, 4 C overnight; blot with anti-Flag, anti-HSP60 and anti-VEGFA

The chains behind the UniProt entries cited, without tags or fusion partners. Residues count along the entry.
UniProt P10809, residues 27-573: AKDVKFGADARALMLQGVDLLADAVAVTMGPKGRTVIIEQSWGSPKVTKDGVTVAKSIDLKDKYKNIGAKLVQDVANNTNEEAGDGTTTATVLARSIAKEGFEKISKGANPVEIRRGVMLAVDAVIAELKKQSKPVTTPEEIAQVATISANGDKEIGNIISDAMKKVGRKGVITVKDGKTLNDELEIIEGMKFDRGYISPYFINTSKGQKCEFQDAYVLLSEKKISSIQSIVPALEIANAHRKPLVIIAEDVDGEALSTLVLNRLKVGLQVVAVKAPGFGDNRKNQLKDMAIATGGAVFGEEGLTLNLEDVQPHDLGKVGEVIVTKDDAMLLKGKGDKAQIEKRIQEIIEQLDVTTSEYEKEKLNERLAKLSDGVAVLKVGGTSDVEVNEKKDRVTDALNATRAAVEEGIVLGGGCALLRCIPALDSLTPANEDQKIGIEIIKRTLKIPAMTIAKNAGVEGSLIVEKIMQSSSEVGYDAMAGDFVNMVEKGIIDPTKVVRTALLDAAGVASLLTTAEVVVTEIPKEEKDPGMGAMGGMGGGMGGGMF

binding [1]: binds
binding [2]: binds
Substance: vascular endothelial growth factor A (VEGFA), endogenous (from UniProt P15692-4)

— paper PMC12239982
